{
  "sequences": {"note": "The chains behind the UniProt entries cited, without tags or fusion partners. Where a name states a change or a piece, a line headed by the entry shows the natural chain unless it says otherwise.", "UniProt Q8BQQ1": "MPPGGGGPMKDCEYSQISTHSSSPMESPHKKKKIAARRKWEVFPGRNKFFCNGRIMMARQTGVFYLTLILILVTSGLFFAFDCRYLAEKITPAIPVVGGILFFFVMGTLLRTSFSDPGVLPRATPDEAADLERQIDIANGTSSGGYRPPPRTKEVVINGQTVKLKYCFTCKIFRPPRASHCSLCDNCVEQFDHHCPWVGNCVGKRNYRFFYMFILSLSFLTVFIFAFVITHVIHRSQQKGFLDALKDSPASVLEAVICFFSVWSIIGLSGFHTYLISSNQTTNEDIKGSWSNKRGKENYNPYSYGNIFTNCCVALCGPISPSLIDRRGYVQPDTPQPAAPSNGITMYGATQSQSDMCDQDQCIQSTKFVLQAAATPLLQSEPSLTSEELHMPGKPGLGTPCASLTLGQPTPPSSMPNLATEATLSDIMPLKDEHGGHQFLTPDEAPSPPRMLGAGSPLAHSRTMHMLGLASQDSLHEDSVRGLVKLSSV", "UniProt Q8BRT1": "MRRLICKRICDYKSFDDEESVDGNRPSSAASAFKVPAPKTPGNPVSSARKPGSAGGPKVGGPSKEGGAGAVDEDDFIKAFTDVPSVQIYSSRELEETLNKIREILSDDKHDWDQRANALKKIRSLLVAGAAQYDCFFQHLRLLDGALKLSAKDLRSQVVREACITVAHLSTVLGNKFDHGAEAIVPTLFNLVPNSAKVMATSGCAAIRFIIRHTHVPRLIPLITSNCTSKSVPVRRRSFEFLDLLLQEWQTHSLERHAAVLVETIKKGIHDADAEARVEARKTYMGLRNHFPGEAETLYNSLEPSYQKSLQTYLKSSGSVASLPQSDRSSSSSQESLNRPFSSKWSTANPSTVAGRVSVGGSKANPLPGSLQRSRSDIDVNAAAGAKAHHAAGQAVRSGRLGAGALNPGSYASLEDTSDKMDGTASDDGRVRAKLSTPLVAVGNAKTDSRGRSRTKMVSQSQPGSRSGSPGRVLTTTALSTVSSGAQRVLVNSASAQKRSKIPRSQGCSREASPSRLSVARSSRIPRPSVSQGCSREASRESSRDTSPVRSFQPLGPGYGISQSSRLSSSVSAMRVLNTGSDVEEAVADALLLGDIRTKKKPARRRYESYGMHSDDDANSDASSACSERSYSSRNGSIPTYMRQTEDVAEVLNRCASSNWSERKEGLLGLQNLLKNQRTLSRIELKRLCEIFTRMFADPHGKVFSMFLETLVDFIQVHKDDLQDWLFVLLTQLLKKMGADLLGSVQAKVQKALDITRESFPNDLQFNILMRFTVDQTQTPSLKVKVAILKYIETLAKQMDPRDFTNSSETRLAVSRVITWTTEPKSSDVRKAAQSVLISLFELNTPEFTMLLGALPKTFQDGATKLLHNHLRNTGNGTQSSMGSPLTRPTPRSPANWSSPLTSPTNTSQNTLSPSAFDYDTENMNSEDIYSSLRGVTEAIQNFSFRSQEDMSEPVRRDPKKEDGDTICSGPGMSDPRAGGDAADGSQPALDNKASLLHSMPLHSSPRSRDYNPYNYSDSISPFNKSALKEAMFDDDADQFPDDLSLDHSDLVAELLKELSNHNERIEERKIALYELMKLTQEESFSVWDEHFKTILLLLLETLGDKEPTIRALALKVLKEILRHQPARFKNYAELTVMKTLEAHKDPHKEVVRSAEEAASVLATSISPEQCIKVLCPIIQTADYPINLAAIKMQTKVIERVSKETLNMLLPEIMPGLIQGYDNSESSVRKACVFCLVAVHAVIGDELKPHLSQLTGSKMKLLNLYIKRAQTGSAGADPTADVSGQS", "UniProt Q8BPZ8": "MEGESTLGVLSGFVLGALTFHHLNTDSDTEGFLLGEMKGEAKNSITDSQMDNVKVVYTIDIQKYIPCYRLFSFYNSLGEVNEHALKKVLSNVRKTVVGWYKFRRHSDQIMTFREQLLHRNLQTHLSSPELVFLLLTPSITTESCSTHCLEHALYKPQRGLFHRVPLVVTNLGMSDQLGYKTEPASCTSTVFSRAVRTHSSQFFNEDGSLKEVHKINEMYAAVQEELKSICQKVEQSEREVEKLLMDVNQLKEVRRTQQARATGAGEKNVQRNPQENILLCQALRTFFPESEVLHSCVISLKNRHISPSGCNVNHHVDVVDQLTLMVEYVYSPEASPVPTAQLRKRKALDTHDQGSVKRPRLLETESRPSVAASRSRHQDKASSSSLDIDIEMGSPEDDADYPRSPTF", "UniProt Q8BIP0": "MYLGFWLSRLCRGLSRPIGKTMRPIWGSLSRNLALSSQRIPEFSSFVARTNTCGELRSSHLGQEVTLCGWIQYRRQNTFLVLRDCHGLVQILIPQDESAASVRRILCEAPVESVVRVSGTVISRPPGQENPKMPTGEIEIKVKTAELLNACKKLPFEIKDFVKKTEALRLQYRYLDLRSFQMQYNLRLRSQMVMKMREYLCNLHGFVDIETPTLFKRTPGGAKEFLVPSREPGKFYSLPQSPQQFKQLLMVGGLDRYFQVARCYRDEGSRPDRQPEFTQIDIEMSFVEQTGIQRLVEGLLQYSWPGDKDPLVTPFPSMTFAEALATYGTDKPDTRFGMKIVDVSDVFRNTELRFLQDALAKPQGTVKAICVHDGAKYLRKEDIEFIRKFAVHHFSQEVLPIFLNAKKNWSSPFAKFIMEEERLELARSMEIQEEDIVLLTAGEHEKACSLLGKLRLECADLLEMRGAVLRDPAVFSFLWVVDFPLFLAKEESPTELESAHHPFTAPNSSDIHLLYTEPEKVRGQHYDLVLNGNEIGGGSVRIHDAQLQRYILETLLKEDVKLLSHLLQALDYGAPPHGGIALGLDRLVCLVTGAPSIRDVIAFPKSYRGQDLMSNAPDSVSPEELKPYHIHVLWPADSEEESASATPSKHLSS", "UniProt Q8BT51": "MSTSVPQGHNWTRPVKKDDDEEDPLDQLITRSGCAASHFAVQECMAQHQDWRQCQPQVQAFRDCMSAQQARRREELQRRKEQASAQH", "UniProt Q8BKI2, whole entry": "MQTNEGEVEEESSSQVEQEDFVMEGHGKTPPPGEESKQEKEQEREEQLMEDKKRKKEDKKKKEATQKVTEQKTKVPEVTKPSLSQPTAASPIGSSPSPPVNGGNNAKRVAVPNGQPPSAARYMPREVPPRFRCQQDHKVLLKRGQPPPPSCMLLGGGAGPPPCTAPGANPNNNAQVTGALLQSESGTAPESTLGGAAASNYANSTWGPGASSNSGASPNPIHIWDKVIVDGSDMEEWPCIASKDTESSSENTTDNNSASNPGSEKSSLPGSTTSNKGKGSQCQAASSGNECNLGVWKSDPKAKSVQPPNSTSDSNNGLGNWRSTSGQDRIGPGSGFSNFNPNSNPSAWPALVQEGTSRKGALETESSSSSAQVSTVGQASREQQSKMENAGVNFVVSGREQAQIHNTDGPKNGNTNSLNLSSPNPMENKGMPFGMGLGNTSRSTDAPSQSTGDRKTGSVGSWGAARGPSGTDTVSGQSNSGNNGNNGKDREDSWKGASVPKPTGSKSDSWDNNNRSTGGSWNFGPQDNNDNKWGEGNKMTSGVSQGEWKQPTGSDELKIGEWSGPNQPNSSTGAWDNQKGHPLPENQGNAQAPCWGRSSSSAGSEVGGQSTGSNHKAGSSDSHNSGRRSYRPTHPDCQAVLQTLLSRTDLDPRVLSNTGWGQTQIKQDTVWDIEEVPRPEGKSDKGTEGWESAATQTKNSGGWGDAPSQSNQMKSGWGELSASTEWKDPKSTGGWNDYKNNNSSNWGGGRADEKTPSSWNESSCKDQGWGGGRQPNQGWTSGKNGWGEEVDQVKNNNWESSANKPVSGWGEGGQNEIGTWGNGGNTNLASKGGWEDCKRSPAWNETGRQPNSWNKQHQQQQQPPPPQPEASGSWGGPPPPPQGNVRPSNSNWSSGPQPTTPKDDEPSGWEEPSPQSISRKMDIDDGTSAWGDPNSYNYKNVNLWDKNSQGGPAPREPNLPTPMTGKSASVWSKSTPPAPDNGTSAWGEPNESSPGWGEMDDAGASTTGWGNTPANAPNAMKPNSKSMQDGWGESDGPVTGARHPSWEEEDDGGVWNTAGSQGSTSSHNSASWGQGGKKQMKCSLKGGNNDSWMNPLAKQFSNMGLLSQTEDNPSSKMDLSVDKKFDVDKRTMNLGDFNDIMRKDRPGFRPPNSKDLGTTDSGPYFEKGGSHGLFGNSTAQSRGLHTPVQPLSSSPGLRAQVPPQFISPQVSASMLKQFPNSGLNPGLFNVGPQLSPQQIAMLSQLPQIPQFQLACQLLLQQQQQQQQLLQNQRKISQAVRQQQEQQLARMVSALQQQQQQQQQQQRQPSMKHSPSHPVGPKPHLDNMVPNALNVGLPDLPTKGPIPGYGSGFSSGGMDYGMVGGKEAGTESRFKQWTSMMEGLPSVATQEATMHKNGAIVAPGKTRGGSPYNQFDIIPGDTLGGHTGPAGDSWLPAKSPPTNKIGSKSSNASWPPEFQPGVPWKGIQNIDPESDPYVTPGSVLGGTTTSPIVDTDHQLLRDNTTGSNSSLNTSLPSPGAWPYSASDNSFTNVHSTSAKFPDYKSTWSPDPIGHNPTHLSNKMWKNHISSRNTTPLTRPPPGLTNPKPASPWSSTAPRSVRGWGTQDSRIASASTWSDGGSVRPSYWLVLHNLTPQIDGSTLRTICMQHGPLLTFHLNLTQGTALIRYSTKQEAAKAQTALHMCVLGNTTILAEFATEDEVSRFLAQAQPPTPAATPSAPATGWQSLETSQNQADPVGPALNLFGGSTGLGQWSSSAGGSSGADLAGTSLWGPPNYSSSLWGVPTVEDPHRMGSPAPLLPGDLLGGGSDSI", "UniProt Q8BMP6": "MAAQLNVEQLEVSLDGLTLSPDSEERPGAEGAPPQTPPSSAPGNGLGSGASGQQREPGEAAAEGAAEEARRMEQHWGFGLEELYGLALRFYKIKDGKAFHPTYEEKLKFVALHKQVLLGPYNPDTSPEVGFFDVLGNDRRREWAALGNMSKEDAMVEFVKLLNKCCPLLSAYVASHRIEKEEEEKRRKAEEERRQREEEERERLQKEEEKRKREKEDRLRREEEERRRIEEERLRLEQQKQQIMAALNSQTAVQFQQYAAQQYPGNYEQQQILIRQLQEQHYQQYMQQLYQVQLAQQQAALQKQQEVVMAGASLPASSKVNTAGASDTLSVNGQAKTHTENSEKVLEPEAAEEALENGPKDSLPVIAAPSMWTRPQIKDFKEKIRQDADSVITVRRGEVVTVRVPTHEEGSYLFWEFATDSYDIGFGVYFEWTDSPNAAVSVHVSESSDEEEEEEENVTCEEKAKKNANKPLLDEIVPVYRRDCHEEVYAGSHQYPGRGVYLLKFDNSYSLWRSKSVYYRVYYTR", "UniProt Q8BMJ2": "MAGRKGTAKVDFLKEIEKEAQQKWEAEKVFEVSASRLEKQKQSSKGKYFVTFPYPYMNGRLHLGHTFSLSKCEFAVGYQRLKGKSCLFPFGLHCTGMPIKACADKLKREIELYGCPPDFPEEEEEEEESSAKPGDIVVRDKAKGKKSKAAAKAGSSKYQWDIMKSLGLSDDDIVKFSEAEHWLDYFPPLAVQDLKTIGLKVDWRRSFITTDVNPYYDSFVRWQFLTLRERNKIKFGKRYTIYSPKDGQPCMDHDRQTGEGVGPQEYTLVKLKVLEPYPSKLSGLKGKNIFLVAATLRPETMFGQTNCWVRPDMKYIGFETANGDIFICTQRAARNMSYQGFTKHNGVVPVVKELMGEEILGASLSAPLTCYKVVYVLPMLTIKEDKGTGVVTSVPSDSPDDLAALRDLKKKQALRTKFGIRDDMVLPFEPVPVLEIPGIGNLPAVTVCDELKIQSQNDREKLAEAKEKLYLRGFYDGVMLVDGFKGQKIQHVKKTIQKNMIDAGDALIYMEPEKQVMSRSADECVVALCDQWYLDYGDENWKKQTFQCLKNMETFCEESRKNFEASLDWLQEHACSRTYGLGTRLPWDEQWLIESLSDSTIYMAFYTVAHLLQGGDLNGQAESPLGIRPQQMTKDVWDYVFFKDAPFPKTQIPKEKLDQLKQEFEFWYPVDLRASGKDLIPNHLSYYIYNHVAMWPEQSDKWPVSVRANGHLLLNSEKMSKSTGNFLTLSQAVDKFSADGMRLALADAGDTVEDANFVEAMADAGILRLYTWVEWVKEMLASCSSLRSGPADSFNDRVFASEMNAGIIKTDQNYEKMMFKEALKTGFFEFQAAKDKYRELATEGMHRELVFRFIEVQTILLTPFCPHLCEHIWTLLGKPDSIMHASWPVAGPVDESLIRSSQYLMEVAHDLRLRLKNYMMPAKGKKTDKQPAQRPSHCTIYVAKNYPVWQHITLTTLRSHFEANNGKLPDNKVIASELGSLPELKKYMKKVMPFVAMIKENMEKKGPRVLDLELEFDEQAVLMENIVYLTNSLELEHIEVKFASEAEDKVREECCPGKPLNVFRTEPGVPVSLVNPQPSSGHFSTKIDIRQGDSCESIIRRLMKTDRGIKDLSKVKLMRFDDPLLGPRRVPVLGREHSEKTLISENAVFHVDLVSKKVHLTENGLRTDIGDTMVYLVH"},
  "source": "the supplement of paper PMC12819154",
  "about": "“High-throughput peptide-centric local stability assay extends protein–ligand identification to membrane proteins, tissues and bacteria” (Nature Structural & Molecular Biology, 2025)",
  "note": "The other results are listed elsewhere or left out. Most values lie at the level of the controls, where differences are scatter.",
  "data": [
    {"compound": "CN[C@@H]1C[C@H]2O[C@@](C)([C@@H]1OC)n1c3ccccc3c3c4c(c5c6ccccc6n2c5c31)C(=O)NC4 [staurosporine]", "assay": "log2 fold change of tryptic peptide abundance, ligand vs vehicle (limited proteolysis) (log2 ratio); higher = more trypsin-susceptible (destabilized)", "settings": "ligand concentration: 20 uM; sample: mouse liver crude lysate; replicate design: treated separately", "values": [
      {"target": "UniProt Q8BQQ1 (peptide sequence: MLGAGSPLAHSR, peptide start residue: 451)", "log2 fold change": -0.3},
      {"target": "UniProt Q8BRT1 (peptide sequence: GIHDADAEAR, peptide start residue: 268)", "log2 fold change": -0.473},
      {"target": "UniProt Q8BPZ8 (peptide sequence: ALDTHDQGSVK, peptide start residue: 347)", "log2 fold change": -0.469},
      {"target": "UniProt Q8BTY8 (peptide sequence: SVYVPGNNTHQASYKPLLK, peptide start residue: 559)", "log2 fold change": 0.264},
      {"target": "UniProt Q8BUE4 (peptide sequence: VSNLEELPRNEYR, peptide start residue: 209)", "log2 fold change": -0.281},
      {"target": "UniProt Q8BIP0 (peptide sequence: EFLVPSREPGK, peptide start residue: 224)", "log2 fold change": 0.0877},
      {"target": "UniProt Q8BT51 (peptide sequence: KDDDEEDPLDQLITR, peptide start residue: 17)", "log2 fold change": 0.235},
      {"target": "UniProt Q8BKI2 (peptide sequence: GASVPKPTGSK, peptide start residue: 496)", "log2 fold change": -0.306},
      {"target": "UniProt Q8BMP6 (peptide sequence: EWAALGNMSK, peptide start residue: 142)", "log2 fold change": 0.151},
      {"target": "UniProt Q8BPU7 (peptide sequence: RQEMANILAQK, peptide start residue: 259)", "log2 fold change": -0.349},
      {"target": "UniProt Q8BRB7 (peptide sequence: ICHAVSTSHGLDKK, peptide start residue: 32)", "log2 fold change": 0.302},
      {"target": "UniProt Q8BMJ2 (peptide sequence: NMETFCEESR, peptide start residue: 551)", "log2 fold change": 0.217}
    ]}
  ]
}
